Test results from patent US5277882A, “Process for recovering germanium” (Union Miniere s.a., priority 1991, dated 1994).

Tests used:
Conditions in all cases: 10 min
[1] = one-step extraction from weak acid sulphate solution, distribution of Ge
[2] = one-step extraction from weak acid sulphate solution, distribution of In
[3] = one-step extraction from weak acid sulphate solution, distribution of Ga
[4] = Example 4, sodium sulphate solution, O/A=1/3, 50° C.

Row | SMILES | [Ge]A, Ge concentration in the aqueous phase ([1]; Example 1, O/A=1/3, 50° C.) [g/L] | [Ge]O, Ge concentration in the organic phase ([1]; Example 1, O/A=1/3, 50° C.) [g/L] | [In]A, In concentration in the aqueous phase ([2]; Example 1, O/A=1/3, 50° C.) [g/L] | [In]O, In concentration in the organic phase ([2]; Example 1, O/A=1/3, 50° C.) [g/L] | [Ga]A, Ga concentration in the aqueous phase ([3]; Example 1, O/A=1/3, 50° C.) [g/L] | [Ga]O, Ga concentration in the organic phase ([3]; Example 1, O/A=1/3, 50° C.) [g/L] | [Ge]A, Ge concentration in the aqueous phase ([1]; Example 2, O/A=1/3, 50° C.) [g/L] | [Ge]O, Ge concentration in the organic phase ([1]; Example 2, O/A=1/3, 50° C.) [g/L] | [Ge]A, Ge concentration in the aqueous phase [1, 4] [g/L] | [Ge]O, Ge concentration in the organic phase [1, 4] [g/L] | [In]A, In concentration in the aqueous phase ([2]; Example 2, O/A=1/3, 50° C.) [g/L] | [In]O, In concentration in the organic phase ([2]; Example 2, O/A=1/3, 50° C.) [g/L] | [In]A, In concentration in the aqueous phase [2, 4] [g/L] | [In]O, In concentration in the organic phase [2, 4] [g/L] | [Ga]A, Ga concentration in the aqueous phase ([3]; Example 2, O/A=1/3, 50° C.) [g/L] | [Ga]O, Ga concentration in the organic phase ([3]; Example 2, O/A=1/3, 50° C.) [g/L] | [Ga]A, Ga concentration in the aqueous phase [3, 4] [g/L] | [Ga]O, Ga concentration in the organic phase [3, 4] [g/L]
1 | CC(CC(C)(C)C)CP(=O)(O)CC(C)CC(C)(C)C (stereo not drawn) [Cyanex 272, bis (2,4,4-trimethyl)-pentylphosphinic acid] | 0.028 | 0 | 0.240 | 0.160 | 0.070 | 0 |  |  |  |  |  |  |  |  |  |  |  | 
2 | CCCCC(CC)COP(=O)(O)OCC(CC)CCCC (stereo not drawn) [D2EHPA, di-(2-ethyl)-hexyl-phosphoric acid, reference compound] | 0.029 | 0 | 0.040 | 0.720 | 0.070 | 0 |  |  |  |  |  |  |  |  |  |  |  | 
3 | CCCCC(CC)COP(=O)(O)CC(CC)CCCC (stereo not drawn) [PC-88 A, mono-(2-ethyl)-hexyl-(2-ethyl)-hexyl-phosphonic acid-ester] | 0.026 | 0 | 0.064 | 0.648 | 0.060 | 0.030 | 0.032 | 0 | 0.109 | 0 | 0.070 | 0.390 | 0.140 | 0.789 | 0.380 | 0 | 0.120 | 0
